Laboratory results as given in article PMC4207660, “Identification and Characterization of Hundreds of Potent and Selective Inhibitors of Trypanosoma brucei Growth from a Kinase-Targeted Library Screening Campaign” (PLoS Neglected Tropical Diseases, 2014).

Test: Composite Score (multi-factorial prioritization of hits)
Conditions: maximal score 16; for composite score: Figures 7-9 (in parentheses) and text; for Score (Composite Score): Table S2

Compound | composite score | Score (Composite Score)
OCCn1c(CNCCCNc2nc3ccccc3[nH]2)cc2c(Cl)cc(Cl)cc21 [NEU-0001053] | 12 | 12
O=C(Nc1ccncc1)c1ccc([N+](=O)[O-])o1 [NEU-0001094] | – | 9
CN[C@@H]1C[C@H]2O[C@@](C)([C@@H]1OC)n1c3ccccc3c3c4c(c5c6ccccc6n2c5c31)C(=O)NC4 [NEU-0001095] | – | 9
C(=C\c1c(-c2ccccc2)nc2sccn12)/c1ccn[nH]1 [NEU-0001096] | – | 8
Clc1ccc(C2c3ccccc3Cc3nncn32)cc1 (stereo not drawn) [NEU-0001097] | – | 8
O=c1[nH]c(=O)n(CC2CCCCC2)c2nc(N3CCOCC3)sc12 [NEU-0001098] | – | 8
CCCCn1nc(C)c2c(=O)[nH]c(-c3cccc(N)c3)nc21 [NEU-0001099] | – | 8
CS(=O)(=O)Nc1ccc(-c2c(-c3cccnc3)oc3ncnc(N)c23)cc1 [NEU-0001100] | – | 7
O=c1nc(-c2ccccc2)c2cc(-c3ccncc3)ccc2[nH]1 [NEU-0001101] | – | 6
CC[C@@H]1COCCN1c1cc(-c2cc(OC)c3c(N)n[nH]c3c2)nc(N)n1 [NEU-0001102] | – | 6
Cc1cccc(Nc2nc(OCCN)ncc2C(N)=O)c1 [NEU-0001103] | – | 6
CCn1nccc1NC(=O)c1ncnc2ccc(-c3cccc(S(C)(=O)=O)c3)cc12 [NEU-0001104] | – | 6
CN(C)Cc1ccc(-c2cc3c(-c4cnn(C)c4)ccnc3[nH]2)cc1 [NEU-0001200] | 13 | –
Cn1cc(-c2cnc3[nH]cc(-c4cccc(C#N)c4)c3c2)cn1 [NEU-0001207] | 13 | –
